These results are taken from US20240016931A1.

Results are given in words; binding and its absence hold for the method and conditions named. Some results given as binding are weak or reduced against the parent protein; the word gives no strength.

In experiment [1] the target is His-tagged human TSLP antigen (huTSLP-his) (human). The experiment in a line: ELISA, coated huTSLP-his. In general terms: An ELISA detects its analyte on a solid surface through an enzyme-linked reagent.
Experiment [2] shares this target. The experiment can be described thus: ELISA on human TSLP.

B1: hu119-23 (antibody, human IgG1, kappa, V domains shown)
VH: EVQLVQSGAEVKKPGSSVKVSCKASGFTFSTYNMHWVKHAPGQGLEWIGAIYPGNGETSYNQKFKDRATLTVDKSTSTAYMELSSLRSEDTAVYYCAREDDYGEGYFDVWGQGTTVTVSS
VL: DIVLTQSPATLSLSPGERATLSCRASESVDNSGLSFMHWYQQKPGQPPRLLLYRASNLGSGIPARFSGSGSGTDFTLTISSLEPEDFAVYYCQQINTDPLTFGQGTKLEIKR
On to B1, for which the binding result in experiment [1] and in experiment [2] was “binds” in each case.

B2: hu119-28 (antibody, human IgG1, kappa, V domains shown)
VH: EVQLVQSGAEVKKPGSSVKVSCKASGFTFSTYNMHWVKHAPGQGLEWIGAIYPGNGETSYNQKFKDRATLTVDKSTSTAYMELSSLRSEDTAVYYCAREDDYGEGYFDVWGQGTTVTVSS
VL: DIVLTQSPDSLAVSLGERATINCRASESVDSSGLSFMHWYQQKPGQPPKLLIYRASNLGSGVPDRFSGSGSGTDFTLTISSLQAEDVAVYYCQQINTDPLTFGQGTKLEIKR
Regarding B2, the binding entry in experiment [1] and in experiment [2] was “binds” in each case.

B3: hu119-29 (antibody, human IgG1, kappa, V domains shown)
VH: EVQLVQSGAEVKKPGSSVKVSCKASGFTFSTYNMHWVKHAPGQGLEWIGAIYPGNGETSYNQKFKDRATLTVDKSTSTAYMELSSLRSEDTAVYYCAREDDYGEGYFDVWGQGTTVTVSS
VL: DIVLTQSPDSLAVSLGERATINCRASESVDQSGLSFMHWYQQKPGQPPKLLIYRASNLGSGVPDRFSGSGSGTDFTLTISSLQAEDVAVYYCQQINTDPLTFGQGTKLEIKR
As for B3, the binding result in experiment [1] and in experiment [2] was “binds” in each case.
